Source: publication PMC6705763
Results are given in words; binding and its absence hold for the method and conditions named. For part of these data: In cells and extracts the contact can be indirect. Some entries that bind do so weakly or less than the wild type. Tags and fused reporters may be left off the sequences shown.

T1: GFP-OsEXPB4 (pCXSN-nGFP) (rice (Oryza sativa L.)) (UniProt Q94LR4)
T1 sequence: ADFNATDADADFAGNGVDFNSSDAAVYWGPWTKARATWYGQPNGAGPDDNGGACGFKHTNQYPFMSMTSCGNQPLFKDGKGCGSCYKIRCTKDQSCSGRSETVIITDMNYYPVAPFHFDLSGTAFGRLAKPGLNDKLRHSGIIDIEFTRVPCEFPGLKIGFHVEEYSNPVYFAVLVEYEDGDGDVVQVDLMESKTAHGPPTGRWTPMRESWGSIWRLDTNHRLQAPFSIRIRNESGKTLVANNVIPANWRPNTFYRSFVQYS

T2: GFP-OsPP2C09 (pCXSN-nGFP) (rice (Oryza sativa L.)) (UniProt Q5N9N2)
T2 sequence: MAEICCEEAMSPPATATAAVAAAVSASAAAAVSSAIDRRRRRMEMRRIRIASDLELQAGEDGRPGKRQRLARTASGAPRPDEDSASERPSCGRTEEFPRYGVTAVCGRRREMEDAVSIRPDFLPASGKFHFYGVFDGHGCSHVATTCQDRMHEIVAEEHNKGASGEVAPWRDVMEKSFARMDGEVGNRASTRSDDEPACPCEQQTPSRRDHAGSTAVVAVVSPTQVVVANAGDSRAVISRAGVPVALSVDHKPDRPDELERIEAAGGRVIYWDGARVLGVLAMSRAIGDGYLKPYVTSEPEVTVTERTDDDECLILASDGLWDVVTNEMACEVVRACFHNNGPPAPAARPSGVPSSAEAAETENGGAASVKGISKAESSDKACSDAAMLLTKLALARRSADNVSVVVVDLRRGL

T3: GFP-OsMADS4 (pCXSN-nGFP) (rice (Oryza sativa L.)) (UniProt Q40703)
T3 sequence: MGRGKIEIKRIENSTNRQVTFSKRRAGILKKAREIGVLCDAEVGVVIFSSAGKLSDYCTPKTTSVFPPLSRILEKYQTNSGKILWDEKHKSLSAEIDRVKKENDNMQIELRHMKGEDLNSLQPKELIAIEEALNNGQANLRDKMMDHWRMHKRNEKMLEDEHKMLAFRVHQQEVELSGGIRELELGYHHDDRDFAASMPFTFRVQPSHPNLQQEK

T4: GFP-OsMADS2 (pCXSN-nGFP) (rice (Oryza sativa L.)) (UniProt Q40702)
T4 sequence: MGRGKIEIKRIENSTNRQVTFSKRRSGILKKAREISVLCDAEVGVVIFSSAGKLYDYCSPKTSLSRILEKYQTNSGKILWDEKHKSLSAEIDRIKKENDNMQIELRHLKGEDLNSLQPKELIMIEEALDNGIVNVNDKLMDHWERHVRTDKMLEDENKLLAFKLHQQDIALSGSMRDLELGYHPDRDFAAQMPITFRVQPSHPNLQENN

T5: OsMADS16 (pGBKT7-OsMADS16, GAL4 DNA-binding domain fusion) (rice (Oryza sativa L.)) (UniProt Q944S9)
T5 sequence: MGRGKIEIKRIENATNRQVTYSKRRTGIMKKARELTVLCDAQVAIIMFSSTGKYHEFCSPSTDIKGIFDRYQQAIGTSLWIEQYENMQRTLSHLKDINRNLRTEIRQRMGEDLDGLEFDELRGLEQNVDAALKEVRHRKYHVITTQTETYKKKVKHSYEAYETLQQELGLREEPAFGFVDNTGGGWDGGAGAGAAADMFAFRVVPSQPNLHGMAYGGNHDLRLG

T6: nYFP-OsMADS16 (pCAMBIA1300S-YN-OsMADS16) (rice (Oryza sativa L.)) (UniProt Q944S9)
T6 sequence: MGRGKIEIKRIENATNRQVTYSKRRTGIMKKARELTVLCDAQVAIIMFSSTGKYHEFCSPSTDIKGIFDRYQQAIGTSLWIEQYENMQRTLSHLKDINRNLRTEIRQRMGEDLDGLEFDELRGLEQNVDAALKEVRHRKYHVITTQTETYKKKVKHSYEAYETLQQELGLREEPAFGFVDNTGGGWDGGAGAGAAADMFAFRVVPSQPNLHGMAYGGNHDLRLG


Key:
[1] = biological target: T1, GFP-OsEXPB4 (pCXSN-nGFP) (rice (Oryza sativa L.)); assay: co-IP; rice protoplasts cotransformed with pCAMBIA2300-OsMADS16-Flag and pCXSN-nGFP-candidate; lysate bound to GFP-Nanoab-Agarose 2 h at 4°C, washed four times; western blot with anti-Flag or anti-GFP
[2] = biological target: T2, GFP-OsPP2C09 (pCXSN-nGFP) (rice (Oryza sativa L.)); assay: as above
[3] = biological target: T3, GFP-OsMADS4 (pCXSN-nGFP) (rice (Oryza sativa L.)); assay: as above
[4] = biological target: T4, GFP-OsMADS2 (pCXSN-nGFP) (rice (Oryza sativa L.)); assay: as above
[5] = biological target: T5, OsMADS16 (pGBKT7-OsMADS16, GAL4 DNA-binding domain fusion) (rice (Oryza sativa L.)); assay: two-hybrid; yeast AH109 cotransformed with pGBKT7-OsMADS16 (bait) and pGADT7 with the full-length CDS of each candidate (prey); selected on SD/-Leu/-Trp/-His and higher stringency SD/-Leu/-Trp/-His/-Ade plates
[6] = biological target: T6, nYFP-OsMADS16 (pCAMBIA1300S-YN-OsMADS16) (rice (Oryza sativa L.)); assay: split reporter; BiFC in rice protoplasts; OsMADS16 in pCAMBIA1300S-YN, candidates in pCAMBIA2300S-YC; PEG-mediated transfection; confocal microscopy; H2B as nuclear marker

Row | binding [5] | binding [6] | Binder | further results
1 |  |  | OsMADS16-Flag (pCAMBIA2300-OsMADS16-Flag) (protein, UniProt Q944S9 1-224) MGRGKIEIKRIENATNRQVTYSKRRTGIMKKARELTVLCDAQVAIIMFSSTGKYHEFCSPSTDIKGIFDRYQQAIGTSLWIEQYENMQRTLSHLKDINRNLRTEIRQRMGEDLDGLEFDELRGLEQNVDAALKEVRHRKYHVITTQTETYKKKVKHSYEAYETLQQELGLREEPAFGFVDNTGGGWDGGAGAGAAADMFAFRVVPSQPNLHGMAYGGNHDLRLG | binding [1]: binds; binding [2]: binds; binding [3]: binds; binding [4]: binds
2 | binds |  | OsEXPB4 (pGADT7 prey) (protein, UniProt Q94LR4 1-286) MGSLSSLAAAAVFLSLLAVGHCAAADFNATDADADFAGNGVDFNSSDAAVYWGPWTKARATWYGQPNGAGPDDNGGACGFKHTNQYPFMSMTSCGNQPLFKDGKGCGSCYKIRCTKDQSCSGRSETVIITDMNYYPVAPFHFDLSGTAFGRLAKPGLNDKLRHSGIIDIEFTRVPCEFPGLKIGFHVEEYSNPVYFAVLVEYEDGDGDVVQVDLMESKTAHGPPTGRWTPMRESWGSIWRLDTNHRLQAPFSIRIRNESGKTLVANNVIPANWRPNTFYRSFVQYS | 
3 |  | binds | cYFP-OsMADS4 (pCAMBIA2300S-YC) (protein, UniProt Q40703 1-215) MGRGKIEIKRIENSTNRQVTFSKRRAGILKKAREIGVLCDAEVGVVIFSSAGKLSDYCTPKTTSVFPPLSRILEKYQTNSGKILWDEKHKSLSAEIDRVKKENDNMQIELRHMKGEDLNSLQPKELIAIEEALNNGQANLRDKMMDHWRMHKRNEKMLEDEHKMLAFRVHQQEVELSGGIRELELGYHHDDRDFAASMPFTFRVQPSHPNLQQEK | 
4 | binds |  | OsMADS4 (pGADT7 prey) (protein, UniProt Q40703 1-215) MGRGKIEIKRIENSTNRQVTFSKRRAGILKKAREIGVLCDAEVGVVIFSSAGKLSDYCTPKTTSVFPPLSRILEKYQTNSGKILWDEKHKSLSAEIDRVKKENDNMQIELRHMKGEDLNSLQPKELIAIEEALNNGQANLRDKMMDHWRMHKRNEKMLEDEHKMLAFRVHQQEVELSGGIRELELGYHHDDRDFAASMPFTFRVQPSHPNLQQEK | 
5 | binds |  | OsMADS2 (pGADT7 prey) (protein, UniProt Q40702 1-209) MGRGKIEIKRIENSTNRQVTFSKRRSGILKKAREISVLCDAEVGVVIFSSAGKLYDYCSPKTSLSRILEKYQTNSGKILWDEKHKSLSAEIDRIKKENDNMQIELRHLKGEDLNSLQPKELIMIEEALDNGIVNVNDKLMDHWERHVRTDKMLEDENKLLAFKLHQQDIALSGSMRDLELGYHPDRDFAAQMPITFRVQPSHPNLQENN | 
6 |  | binds | cYFP-OsMADS2 (pCAMBIA2300S-YC) (protein, UniProt Q40702 1-209) MGRGKIEIKRIENSTNRQVTFSKRRSGILKKAREISVLCDAEVGVVIFSSAGKLYDYCSPKTSLSRILEKYQTNSGKILWDEKHKSLSAEIDRIKKENDNMQIELRHLKGEDLNSLQPKELIMIEEALDNGIVNVNDKLMDHWERHVRTDKMLEDENKLLAFKLHQQDIALSGSMRDLELGYHPDRDFAAQMPITFRVQPSHPNLQENN | 
7 |  | binds | cYFP-OsEXPB4 (pCAMBIA2300S-YC) (protein, UniProt Q94LR4 25-286) ADFNATDADADFAGNGVDFNSSDAAVYWGPWTKARATWYGQPNGAGPDDNGGACGFKHTNQYPFMSMTSCGNQPLFKDGKGCGSCYKIRCTKDQSCSGRSETVIITDMNYYPVAPFHFDLSGTAFGRLAKPGLNDKLRHSGIIDIEFTRVPCEFPGLKIGFHVEEYSNPVYFAVLVEYEDGDGDVVQVDLMESKTAHGPPTGRWTPMRESWGSIWRLDTNHRLQAPFSIRIRNESGKTLVANNVIPANWRPNTFYRSFVQYS | 
8 |  | binds | cYFP-OsPP2C09 (pCAMBIA2300S-YC) (protein, UniProt Q5N9N2 1-414) MAEICCEEAMSPPATATAAVAAAVSASAAAAVSSAIDRRRRRMEMRRIRIASDLELQAGEDGRPGKRQRLARTASGAPRPDEDSASERPSCGRTEEFPRYGVTAVCGRRREMEDAVSIRPDFLPASGKFHFYGVFDGHGCSHVATTCQDRMHEIVAEEHNKGASGEVAPWRDVMEKSFARMDGEVGNRASTRSDDEPACPCEQQTPSRRDHAGSTAVVAVVSPTQVVVANAGDSRAVISRAGVPVALSVDHKPDRPDELERIEAAGGRVIYWDGARVLGVLAMSRAIGDGYLKPYVTSEPEVTVTERTDDDECLILASDGLWDVVTNEMACEVVRACFHNNGPPAPAARPSGVPSSAEAAETENGGAASVKGISKAESSDKACSDAAMLLTKLALARRSADNVSVVVVDLRRGL | 
9 | binds |  | OsPP2C09 (pGADT7 prey) (protein, UniProt Q5N9N2 1-414) MAEICCEEAMSPPATATAAVAAAVSASAAAAVSSAIDRRRRRMEMRRIRIASDLELQAGEDGRPGKRQRLARTASGAPRPDEDSASERPSCGRTEEFPRYGVTAVCGRRREMEDAVSIRPDFLPASGKFHFYGVFDGHGCSHVATTCQDRMHEIVAEEHNKGASGEVAPWRDVMEKSFARMDGEVGNRASTRSDDEPACPCEQQTPSRRDHAGSTAVVAVVSPTQVVVANAGDSRAVISRAGVPVALSVDHKPDRPDELERIEAAGGRVIYWDGARVLGVLAMSRAIGDGYLKPYVTSEPEVTVTERTDDDECLILASDGLWDVVTNEMACEVVRACFHNNGPPAPAARPSGVPSSAEAAETENGGAASVKGISKAESSDKACSDAAMLLTKLALARRSADNVSVVVVDLRRGL | 
